This passage reports binding results from patent publication US20080090303A1.

These are yes or no findings as the source states them, for the method shown.

In the assay the target is Keyhole Limpet Hemocyanin. Kind of assay: ELISA; laydown conjugate of thiolated S1P with carrier and crosslinker exchanged (BSA/KLH, SMCC/IOA). (An ELISA detects its analyte on a solid surface through an enzyme-linked reagent.)

B1: murine anti-S1P monoclonal antibody Sphingomab (hybridoma clone 306D326.26, ATCC SD-5362) (antibody, mouse IgG1, V domains shown)
VH: QAHLQQSDAELVKPGASVKISCKVSGFIFIDHTIHWMKQRPEQGLEWIGCISPRHDITKYNEMFRGKATLTADKSSTTAYIQVNSLTFEDSAVYFCARGGFYGSTIWFDFWGQGTTLTVS
VL: ETTVTQSPASLSMAIGEKVTIRCITTTDIDDDMNWFQQKPGEPPNLLISEGNILRPGVPSRFSSSGYGTDFLFTIENMLSEDVADYYCLQSDNLPFTFGSGTKLEIK
In the case of B1, the binding entry was “no binding”.
